Differences between knockout arms are mostly noise.
Tested on: MDA-MB-231
Assay: relative cell number vs DMSO control (72 h) (% of DMSO); higher = less growth inhibition (more cells)
Description: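 QMAP-Seq: a pool of 5 breast cancer cell lines (ZR-75-1, SKBR3, HCC-38, MDA-MB-231, BT-20), each carrying 12 doxycycline-inducible Cas9 sgRNA perturbations (11 knockouts plus non-targeting sgNT), was treated with compounds for 72 h at four 10-fold doses (10 nM-10 uM or 1 nM-1 uM range). Barcodes were amplified and sequenced, and cell number was interpolated from 293T spike-in standard curves. The result is expressed as % of the median of DMSO wells. Two biological replicates.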

c1ccc2c(Oc3nc(Nc4ccc(N5CCOCC5)cc4)c4ncn(C5CCCCC5)c4n3)cccc2c1 [Purmorphamine]
Details | relative cell number
sgRNA knockout: sgATF3, 10 nM | 92.9
sgRNA knockout: sgATF3, 100 nM | 96
sgRNA knockout: sgATF3, 1000 nM | 106
sgRNA knockout: sgATF3, 10000 nM | 59.3
sgRNA knockout: sgATF4, 10 nM | 66.8
sgRNA knockout: sgATF4, 100 nM | 76.4
sgRNA knockout: sgATF4, 1000 nM | 88.2
sgRNA knockout: sgATF4, 10000 nM | 63.3
sgRNA knockout: sgATF6, 10 nM | 115
sgRNA knockout: sgATF6, 100 nM | 78.7
sgRNA knockout: sgATF6, 1000 nM | 96.2
sgRNA knockout: sgATF6, 10000 nM | 61.3
sgRNA knockout: sgATG7, 10 nM | 106
sgRNA knockout: sgATG7, 100 nM | 83.4
sgRNA knockout: sgATG7, 1000 nM | 80.1
sgRNA knockout: sgATG7, 10000 nM | 66.1
sgRNA knockout: sgERN1, 10 nM | 76.5
sgRNA knockout: sgERN1, 100 nM | 88.03
sgRNA knockout: sgERN1, 1000 nM | 94.1
sgRNA knockout: sgERN1, 10000 nM | 59.5
sgRNA knockout: sgHSF1, 10 nM | 69.6
sgRNA knockout: sgHSF1, 100 nM | 98
sgRNA knockout: sgHSF1, 1000 nM | 79.8
sgRNA knockout: sgHSF1, 10000 nM | 46.4
sgRNA knockout: sgHSF2, 10 nM | 108.5
sgRNA knockout: sgHSF2, 100 nM | 75.4
sgRNA knockout: sgHSF2, 1000 nM | 76.6
sgRNA knockout: sgHSF2, 10000 nM | 76.3
sgRNA knockout: sgKEAP1, 10 nM | 105
sgRNA knockout: sgKEAP1, 100 nM | 89.1
sgRNA knockout: sgKEAP1, 1000 nM | 80.24
sgRNA knockout: sgKEAP1, 10000 nM | 70.2
sgRNA knockout: sgNFE2L2, 10 nM | 110
sgRNA knockout: sgNFE2L2, 100 nM | 77.2
sgRNA knockout: sgNFE2L2, 1000 nM | 86.8
sgRNA knockout: sgNFE2L2, 10000 nM | 59.1
sgRNA knockout: sgSLC35F2, 10 nM | 104
sgRNA knockout: sgSLC35F2, 100 nM | 89.8
sgRNA knockout: sgSLC35F2, 1000 nM | 106
sgRNA knockout: sgSLC35F2, 10000 nM | 65.3
sgRNA knockout: sgXBP1, 10 nM | 86.6
sgRNA knockout: sgXBP1, 100 nM | 102
sgRNA knockout: sgXBP1, 1000 nM | 92.1
sgRNA knockout: sgXBP1, 10000 nM | 71.74

CC(C)(C)c1ccc(S(=O)(=O)NCc2ccc(C(=O)Nc3cccnc3)cc2)cc1 [STF31]
Details | relative cell number
sgRNA knockout: sgATF3, 10 nM | 101
sgRNA knockout: sgATF3, 100 nM | 91.7
sgRNA knockout: sgATF3, 1000 nM | 58.6
sgRNA knockout: sgATF3, 10000 nM | 23.03
sgRNA knockout: sgATF4, 10 nM | 106
sgRNA knockout: sgATF4, 100 nM | 107
sgRNA knockout: sgATF4, 1000 nM | 66.8
sgRNA knockout: sgATF4, 10000 nM | 39.9
sgRNA knockout: sgATF6, 10 nM | 128
sgRNA knockout: sgATF6, 100 nM | 86.2
sgRNA knockout: sgATF6, 1000 nM | 74.9
sgRNA knockout: sgATF6, 10000 nM | 39.1
sgRNA knockout: sgATG7, 10 nM | 111
sgRNA knockout: sgATG7, 100 nM | 87
sgRNA knockout: sgATG7, 1000 nM | 51.6
sgRNA knockout: sgATG7, 10000 nM | 31.2
sgRNA knockout: sgERN1, 10 nM | 103
sgRNA knockout: sgERN1, 100 nM | 81.5
sgRNA knockout: sgERN1, 1000 nM | 51.3
sgRNA knockout: sgERN1, 10000 nM | 32.4
sgRNA knockout: sgHSF1, 10 nM | 96.5
sgRNA knockout: sgHSF1, 100 nM | 89.3
sgRNA knockout: sgHSF1, 1000 nM | 49.7
sgRNA knockout: sgHSF1, 10000 nM | 31.1
sgRNA knockout: sgHSF2, 10 nM | 89
sgRNA knockout: sgHSF2, 100 nM | 83.9
sgRNA knockout: sgHSF2, 1000 nM | 60.5
sgRNA knockout: sgHSF2, 10000 nM | 34.9
sgRNA knockout: sgKEAP1, 10 nM | 89.1
sgRNA knockout: sgKEAP1, 100 nM | 96.5
sgRNA knockout: sgKEAP1, 1000 nM | 99
sgRNA knockout: sgKEAP1, 10000 nM | 35.4
sgRNA knockout: sgNFE2L2, 10 nM | 101
sgRNA knockout: sgNFE2L2, 100 nM | 93.6
sgRNA knockout: sgNFE2L2, 1000 nM | 58.3
sgRNA knockout: sgNFE2L2, 10000 nM | 41.4
sgRNA knockout: sgSLC35F2, 10 nM | 111
sgRNA knockout: sgSLC35F2, 100 nM | 75.2
sgRNA knockout: sgSLC35F2, 1000 nM | 46.3
sgRNA knockout: sgSLC35F2, 10000 nM | 36.7
sgRNA knockout: sgXBP1, 10 nM | 107
sgRNA knockout: sgXBP1, 100 nM | 94.5
sgRNA knockout: sgXBP1, 1000 nM | 71
sgRNA knockout: sgXBP1, 10000 nM | 31.4

CN1CCN(CCOc2cc(OC3CCOCC3)c3c(Nc4c(Cl)ccc5c4OCO5)ncnc3c2)CC1 [Saracatinib]
Details | relative cell number
sgRNA knockout: sgATF3, 10 nM | 111
sgRNA knockout: sgATF3, 100 nM | 75.2
sgRNA knockout: sgATF3, 1000 nM | 78.2
sgRNA knockout: sgATF3, 10000 nM | 48.1
sgRNA knockout: sgATF4, 10 nM | 95
sgRNA knockout: sgATF4, 100 nM | 91
sgRNA knockout: sgATF4, 1000 nM | 69.9
sgRNA knockout: sgATF4, 10000 nM | 48.6
sgRNA knockout: sgATF6, 10 nM | 93
sgRNA knockout: sgATF6, 100 nM | 82.67
sgRNA knockout: sgATF6, 1000 nM | 59.3
sgRNA knockout: sgATF6, 10000 nM | 46.8
sgRNA knockout: sgATG7, 10 nM | 104
sgRNA knockout: sgATG7, 100 nM | 79.3
sgRNA knockout: sgATG7, 1000 nM | 61.4
sgRNA knockout: sgATG7, 10000 nM | 48.1
sgRNA knockout: sgERN1, 10 nM | 89.5
sgRNA knockout: sgERN1, 100 nM | 85.6
sgRNA knockout: sgERN1, 1000 nM | 63.5
sgRNA knockout: sgERN1, 10000 nM | 50.8
sgRNA knockout: sgHSF1, 10 nM | 85.7
sgRNA knockout: sgHSF1, 100 nM | 82.2
sgRNA knockout: sgHSF1, 1000 nM | 64.9
sgRNA knockout: sgHSF1, 10000 nM | 47.2
sgRNA knockout: sgHSF2, 10 nM | 87.3
sgRNA knockout: sgHSF2, 100 nM | 103
sgRNA knockout: sgHSF2, 1000 nM | 62.1
sgRNA knockout: sgHSF2, 10000 nM | 48.9
sgRNA knockout: sgKEAP1, 10 nM | 71.9
sgRNA knockout: sgKEAP1, 100 nM | 103
sgRNA knockout: sgKEAP1, 1000 nM | 81.5
sgRNA knockout: sgKEAP1, 10000 nM | 42.2
sgRNA knockout: sgNFE2L2, 10 nM | 77.6
sgRNA knockout: sgNFE2L2, 100 nM | 77.8
sgRNA knockout: sgNFE2L2, 1000 nM | 61.1
sgRNA knockout: sgNFE2L2, 10000 nM | 44.3
sgRNA knockout: sgSLC35F2, 10 nM | 78.2
sgRNA knockout: sgSLC35F2, 100 nM | 101
sgRNA knockout: sgSLC35F2, 1000 nM | 73
sgRNA knockout: sgSLC35F2, 10000 nM | 39.5
sgRNA knockout: sgXBP1, 10 nM | 86.6
sgRNA knockout: sgXBP1, 100 nM | 90.8
sgRNA knockout: sgXBP1, 1000 nM | 65.4
sgRNA knockout: sgXBP1, 10000 nM | 44
